# According to article PMC11540436:
# Protein sequences, listed by entry. Tags and fused reporters are not part of them.
# UniProt P93002: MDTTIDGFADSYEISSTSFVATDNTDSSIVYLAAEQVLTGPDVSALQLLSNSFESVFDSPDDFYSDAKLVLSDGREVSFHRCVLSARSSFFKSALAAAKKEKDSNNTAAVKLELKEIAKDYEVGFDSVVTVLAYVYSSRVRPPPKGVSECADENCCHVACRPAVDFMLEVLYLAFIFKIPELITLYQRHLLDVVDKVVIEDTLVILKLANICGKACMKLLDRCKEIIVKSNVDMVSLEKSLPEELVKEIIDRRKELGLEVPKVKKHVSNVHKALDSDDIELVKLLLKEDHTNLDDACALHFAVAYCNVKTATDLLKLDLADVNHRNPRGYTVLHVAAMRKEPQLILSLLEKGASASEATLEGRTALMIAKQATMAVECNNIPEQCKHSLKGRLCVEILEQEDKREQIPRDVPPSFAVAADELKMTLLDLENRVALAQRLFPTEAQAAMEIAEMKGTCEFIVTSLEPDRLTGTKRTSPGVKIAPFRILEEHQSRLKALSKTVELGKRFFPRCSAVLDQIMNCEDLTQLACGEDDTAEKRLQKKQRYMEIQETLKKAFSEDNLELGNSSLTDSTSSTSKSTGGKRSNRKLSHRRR
# UniProt F4JLS1: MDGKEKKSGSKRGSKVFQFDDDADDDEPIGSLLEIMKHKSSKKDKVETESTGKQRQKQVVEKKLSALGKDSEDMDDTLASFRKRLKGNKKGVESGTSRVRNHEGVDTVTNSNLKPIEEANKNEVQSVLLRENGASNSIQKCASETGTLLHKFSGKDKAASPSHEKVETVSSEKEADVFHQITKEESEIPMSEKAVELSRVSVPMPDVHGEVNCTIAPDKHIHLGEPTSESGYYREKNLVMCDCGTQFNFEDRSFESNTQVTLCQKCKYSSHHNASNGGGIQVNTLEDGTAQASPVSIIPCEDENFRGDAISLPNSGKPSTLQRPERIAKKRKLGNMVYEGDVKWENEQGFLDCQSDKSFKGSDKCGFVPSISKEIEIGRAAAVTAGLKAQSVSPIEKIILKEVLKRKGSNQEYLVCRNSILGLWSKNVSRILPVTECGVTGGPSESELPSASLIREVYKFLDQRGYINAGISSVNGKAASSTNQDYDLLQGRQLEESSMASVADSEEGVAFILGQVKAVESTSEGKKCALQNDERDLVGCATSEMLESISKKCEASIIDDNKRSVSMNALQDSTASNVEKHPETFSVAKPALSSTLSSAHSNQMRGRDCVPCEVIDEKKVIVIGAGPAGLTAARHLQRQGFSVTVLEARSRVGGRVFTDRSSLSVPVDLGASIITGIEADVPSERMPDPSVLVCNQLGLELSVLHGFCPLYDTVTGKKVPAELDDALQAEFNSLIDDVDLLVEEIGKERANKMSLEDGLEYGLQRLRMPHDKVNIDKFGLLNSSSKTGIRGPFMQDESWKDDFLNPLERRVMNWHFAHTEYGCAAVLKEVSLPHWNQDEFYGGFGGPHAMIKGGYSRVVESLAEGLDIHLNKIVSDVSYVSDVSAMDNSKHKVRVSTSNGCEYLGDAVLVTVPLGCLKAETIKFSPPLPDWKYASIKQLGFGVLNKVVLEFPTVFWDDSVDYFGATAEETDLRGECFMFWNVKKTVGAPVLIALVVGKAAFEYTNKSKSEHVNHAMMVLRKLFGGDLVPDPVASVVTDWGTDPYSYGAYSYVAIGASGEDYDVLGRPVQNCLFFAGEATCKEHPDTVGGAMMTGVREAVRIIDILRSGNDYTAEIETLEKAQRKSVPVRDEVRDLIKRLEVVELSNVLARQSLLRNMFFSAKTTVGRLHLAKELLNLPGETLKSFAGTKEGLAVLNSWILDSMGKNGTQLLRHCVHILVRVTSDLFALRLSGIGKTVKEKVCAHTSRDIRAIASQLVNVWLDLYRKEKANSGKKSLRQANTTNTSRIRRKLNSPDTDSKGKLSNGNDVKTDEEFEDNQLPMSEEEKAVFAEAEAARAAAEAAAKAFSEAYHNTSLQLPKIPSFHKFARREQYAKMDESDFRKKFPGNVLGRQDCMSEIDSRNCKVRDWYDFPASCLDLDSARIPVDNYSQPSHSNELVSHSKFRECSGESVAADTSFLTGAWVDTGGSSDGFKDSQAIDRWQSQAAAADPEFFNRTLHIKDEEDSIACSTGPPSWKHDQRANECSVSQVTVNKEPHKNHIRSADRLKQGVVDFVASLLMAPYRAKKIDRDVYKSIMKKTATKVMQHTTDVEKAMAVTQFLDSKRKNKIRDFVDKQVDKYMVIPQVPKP
# Results are given in words; binding and its absence hold for the method and conditions named. In cells and extracts the contact can be indirect. Some entries that bind do so weakly or less than the wild type.
# Biological target: NPR1-YN (Arabidopsis thaliana) (UniProt P93002)
# Assay: split reporter; BiFC with split YFP in N. benthamiana leaves, co-expressed with HTB1-mCherry; water (mock) or 1 mM SA for 8 h; confocal imaging of nuclei
row,binding,Molecule
1,binds,LDL3-YC (from UniProt F4JLS1 1-1628)
2,binds,"BRM.C-YC (domain or fragment, UniProt Q6EVK6 953-2193) SSVNKYYTLAHAVNEVVVRQPSMLQAGTLRDYQLVGLQWMLSLYNNKLNGILADEMGLGKTVQVMALIAYLMEFKGNYGPHLIIVPNAVLVNWKSELHTWLPSVSCIYYVGTKDQRSKLFSQEVCAMKFNVLVTTYEFIMYDRSKLSKVDWKYIIIDEAQRMKDRESVLARDLDRYRCQRRLLLTGTPLQNDLKELWSLLNLLLPDVFDNRKAFHDWFAQPFQKEGPAHNIEDDWLETEKKVIVIHRLHQILEPFMLRRRVEDVEGSLPAKVSVVLRCRMSAIQSAVYDWIKATGTLRVDPDDEKLRAQKNPIYQAKIYRTLNNRCMELRKACNHPLLNYPYFNDFSKDFLVRSCGKLWILDRILIKLQRTGHRVLLFSTMTKLLDILEEYLQWRRLVYRRIDGTTSLEDRESAIVDFNDPDTDCFIFLLSIRAAGRGLNLQTADTVVIYDPDPNPKNEEQAVARAHRIGQTREVKVIYMEAVVEKLSSHQKEDELRSGGSVDLEDDMAGKDRYIGSIEGLIRNNIQQYKIDMADEVINAGRFDQRTTHEERRMTLETLLHDEERYQETVHDVPSLHEVNRMIARSEEEVELFDQMDEEFDWTEEMTNHEQVPKWLRASTREVNATVADLSKKPSKNMLSSSNLIVQPGGPGGERKRGRPKSKKINYKEIEDDIAGYSEESSEERNIDSGNEEEGDIRQFDDDELTGALGDHQTNKGEFDGENPVCGYDYPPGSGSYKKNPPRDDAGSSGSSPESHRSKEMASPVSSQKFGSLSALDTRPGSVSKRLLDDLEEGEIAASGDSHIDLQRSGSWAHDRDEGDEEQVLQPTIKRKRSIRLRPRQTAERVDGSEMPAAQPLQVDRSYRSKLRTVVDSHSSRQDQSDSSSRLRSVPAKKVASTSKLHVSSPKSGRLNATQLTVEDNAEASRETWDGTSPISSSNAGARMSHIIQKRCKIVISKLQRRIDKEGQQIVPMLTNLWKRIQNGYAAGGVNNLLELREIDHRVERLEYAGVMELASDVQLMLRGAMQFYGFSHEVRSEAKKVHNLFFDLLKMSFPDTDFREARNALSFSGSAPTLVSTPTPRGAGISQGKRQKLVNEPETEPSSPQRSQQRENSRIRVQIPQKETKLGGTTSHTDESPILAHPGELVICKKKRKDREKSGPKTRTGGSSSPVSPPPAMIGRGLRSPVSGGVPRETRLAQQQRWPNQPTHPNNSGAAGDSVGWANPVKRLRTDSGKRRPSHL"
